Hit rate of the full screen: of about 320,000 compounds, about 2,100 (0.66%) were called active. The inconclusive results got no clear call from the source; some entries with a clear call stand among them for comparison. The call rests on the fitted dose curve; in most records, active means well fitted inhibition curve with a large enough effect in the signal ratio, with a control signal flat (not every such curve was filed as active); inconclusive means small, poorly fitted or top-dose-only effect, or effect the other way, or a change in a side signal; inactive means flat fitted curve, though single readings scatter; the % refers to the signal ratio. Where the call is inconclusive, the potency comes from a doubtful curve fit.
Assay: qHTS Assay for Lipid Storage Modulators in Drosophila S3 Cells
Conditions: BODIPY lipid droplet fluorescence, 18-24 h, cells fed with added oleic acid; lipid storage change, negative = inhibition: at 46.1 µM (top of the series) unless noted
How it was run: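 Drosophila S3 cells loaded with oleic acid (400 uM, as added) and compounds at several concentrations; lipid droplets imaged by 488-nm laser-scanning cytometry, 500–530 nm intensity and object ratio to cell channel. Percent activity normalized to 20 uM Triacsin C.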
On the % scale 0 is the no-effect control and ±100 the full control effect; potency means the concentration at half of the fitted maximal effect.

Row | SMILES | lipid storage change, negative = inhibition | Potency
1 | O=C(CCC(=O)Nc1ccc(F)cc1)N/N=C/c1cc([N+](=O)[O-])ccc1O | inconclusive: -25.5% | 
2 | O=C(COC(=O)C1CCN(c2ccc(C(F)(F)F)cn2)CC1)Nc1ccc(Cl)cn1 | inconclusive: -18.5% | 
3 | COc1ccc(Cl)cc1Nc1nc(N)c2ccccc2n1 |  | inconclusive: 4.11 µM [activator, partial curve, poor fit]
4 | Cn1c(=O)c2c(nc(N/N=C/c3cccnc3)n2Cc2ccccc2)n(C)c1=O | inconclusive: -5.87% | 
5 | CCn1cc(C=O)c2cc(S(=O)(=O)N3CCOCC3)ccc21 | inconclusive: 2.96% | 
6 | CS(=O)(=O)Nc1ccc(C2=NN(S(=O)(=O)c3ccc(F)cc3)C(c3ccco3)C2)cc1 (stereo not given) | inconclusive: 4.38% | 
7 | COC(=O)Nc1nnc(Cc2ccc(OC)cc2)s1 | inconclusive: 13.7% | 
8 | Cc1cc(C)n2c(SC/C(O)=C(\C#N)c3nc4ccccc4[nH]3)nnc2n1 | inconclusive: 47.5% | 
9 | O=C(N/N=C/c1cnc2ccccc2n1)c1cccc(F)c1 | inconclusive: 20.3% | 
10 | Cc1ccc2oc(C(=O)N(CCO)Cc3ccccc3)c(C)c2c1 |  | inconclusive: 6.51 µM [falling, partial curve]
11 | CCC(=O)Nc1cccc(NC(=O)c2ccc(C)c([N+](=O)[O-])c2)c1 |  | inconclusive: 0.0146 µM [activator, partial curve, poor fit]
12 | Cc1cccc(S(=O)(=O)NCCNS(=O)(=O)c2cccc(C)c2)c1 | inconclusive: -8.24% | 
13 | N#Cc1ccc(CSC2=NCCN2)cc1 |  | inconclusive: 29.1 µM [falling, single point]
14 | CC(C(=O)Nc1ccccc1)N1CCN(c2ccccn2)CC1 (stereo not given) | inconclusive: 34.6% | 
15 | COc1cccc(CNC(=O)CN(C)S(=O)(=O)c2cnc[nH]2)c1 | inconclusive: -4.28% | 
16 | COc1ccc(/C(C)=N/NC(=O)Cc2c(C)nc(C)[nH]c2=O)cc1 |  | inconclusive: 29.1 µM [activator, single point]
17 | Cc1nn(C)cc1CNC(=O)C1C2CCC(C2)C1C(=O)O (stereo not given) | inconclusive: -38.7% | 
18 | Fc1cccc(NCc2cn3ccccc3n2)c1 | inconclusive: -15.3% | 
19 | COc1cc(CCC(=O)NCc2ccc(S(N)(=O)=O)cc2)cc(OC)c1OC |  | inconclusive: 0.731 µM [falling, full curve, poor fit]
20 | O=C(CC1Sc2ccccc2NC1=O)Nc1ccccc1[N+](=O)[O-] (stereo not given) | inconclusive: -46.8% | 
21 | NC(=O)C1CCN(C(=O)CSCc2ccccc2Cl)CC1 | inconclusive: -0.898% | 
22 | O=C(NC(=O)c1ccccc1)NC1(C(F)(F)F)OCCO1 |  | inconclusive: 0.231 µM [falling, full curve]
23 | C=CCOc1ccc2c(c1)c(=O)cc(C(=O)O)n2CC |  | inconclusive: 6.51 µM [cytotoxic, single point]
24 | CN(CC(=O)Nc1cccc2c1CCCC2)S(=O)(=O)c1ccc(Cl)cc1 | inconclusive: 17.6% | 
25 | Cc1cc(Cl)c(C)c(S(=O)(=O)Oc2ccccc2NC(=O)CCC(=O)O)c1Cl |  | inconclusive: 32.6 µM [activator, single point]

Individual results from above.
Under Potency, `COc1cc(CCC(=O)NCc2ccc(S(N)(=O)=O)cc2)cc(OC)c1OC` reads inconclusive: 0.731 µM [falling, full curve, poor fit]
Under lipid storage change, negative = inhibition, `NC(=O)C1CCN(C(=O)CSCc2ccccc2Cl)CC1` reads inconclusive: -0.898%
Under lipid storage change, negative = inhibition, `CS(=O)(=O)Nc1ccc(C2=NN(S(=O)(=O)c3ccc(F)cc3)C(c3ccco3)C2)cc1` (stereo not given) reads inconclusive: 4.38%

Further compounds follow:

Row | SMILES | lipid storage change, negative = inhibition | Potency
26 | COc1ccc(C(=O)NC2CCCc3ccccc32)c(OC)c1OC (stereo not given) |  | inconclusive: 23.1 µM [activator, single point]
27 | CCN(CC)S(=O)(=O)c1ccc(C(=O)NCCOC(=O)c2ccc(F)cc2F)cc1 |  | active: 4.61 µM
28 | C/C=C(\C)C(=O)NCCN1C2=NC[C@@H](C)N2C[C@H]1Cc1ccc(O)cc1 | inconclusive: -19.5% | 
29 | O=C(c1ccc(F)cc1F)N1CCCC(c2nc(-c3ccc(F)cc3)no2)C1 (stereo not given) | inconclusive: 3.77% | 
30 | O=C(COc1ccc(Cl)cc1Br)NCC(c1ccco1)N1CCCC1 (stereo not given) |  | inconclusive: 25.9 µM [activator, partial curve, poor fit]
31 | Cc1ccc(O)c(CNCCNCc2cc(C)ccc2O)c1 | inconclusive: 13.1% | 
32 | Cc1cc(OCC(=O)NNC(=O)c2cnccn2)cc(C)c1Cl |  | inconclusive: 25.9 µM [activator, single point]
33 | CCN(CC(=O)Nc1c(F)cccc1F)C(=O)c1ccc(Sc2nncn2C)c([N+](=O)[O-])c1 | inconclusive | 
34 | COc1ccc(CC(NC(C)=O)C(=O)NC2CCN(C(=O)Nc3ccccc3C)CC2)cc1OC (stereo not given) |  | inconclusive: 0.13 µM [activator, single point]
35 | CCN(CC)c1ccc(CNC23CN4CN(CN(C4)C2)C3)cc1 |  | inconclusive: 2.06 µM [falling, partial curve]
36 | CCn1nc(C)cc1C(=O)Sc1cccc(Cl)c1 | inconclusive: -44.3% | 
37 | O=C(NNS(=O)(=O)c1ccccc1)c1ccc([N+](=O)[O-])cc1 | inactive | 
38 | CCN(CC(=O)Nc1ccccc1C(F)(F)F)C(=O)c1ccc2[nH]c3c(c2c1)CC(C)CC3 (stereo not given) | inconclusive: 19.3% | 
39 | OCCCNc1c2ccccc2nc2ccccc12 | inconclusive: -18.5% | 
40 | COc1ccc(C2C3=C(CC(C)(C)CC3=O)Oc3ncn(Cc4ccco4)c(=N)c32)cc1 (stereo not given) |  | inconclusive: 16.4 µM [activator, single point]
41 | Cc1cc(Cl)ccc1NC(=O)c1ccc2c(c1)OCO2 | inconclusive: -29.6% | 
42 | CSc1nc(N)c2c3c(sc2n1)COC(C(C)C)C3 (stereo not given) |  | inconclusive: 29.1 µM [rising, single point]
43 | CSc1nc(=O)n(-c2ccccc2)c(C)c1C(C)=O | inconclusive: -41.6% | 
44 | Cc1ccc(CNC(=O)COC(=O)c2cc(C)oc2C)cc1 |  | inconclusive: 0.461 µM [activator, single point]
45 | O=C(NCc1ccccc1F)C(=O)NCC1OCCCN1S(=O)(=O)c1cccs1 (stereo not given) | inconclusive: 48% | 
46 | OC(CC#CCN1CCCC1)(c1ccccc1)c1ccccc1 |  | inconclusive: 3.66 µM [falling, single point]
47 | CCOC(=O)CN1C(=O)S/C(=C/c2ccc(N3CCCCC3)o2)C1=O | inconclusive: 246% | 
48 | CCOc1ccc(C(C)NC(=S)NCc2ccc(F)cc2)cc1 (stereo not given) | inconclusive: 4.46% | 
49 | CCc1nc2ccc(C(=O)N(CC)CC(=O)Nc3c(F)cccc3F)cc2nc1CC | inconclusive: 28.3% | 
50 | COc1ccc(NC(=O)NC2(C(=O)N3CCCCCC3)CCCCC2)cc1 |  | inconclusive: 0.0058 µM [falling, full curve]

Row | SMILES | lipid storage change, negative = inhibition | Potency
51 | c1ccc2c(Oc3ccc4c(c3)OCO4)nncc2c1 |  | inconclusive: 18.4 µM [activator, partial curve]
52 | CC(C)CC(=O)OCC(=O)Nc1ccccc1Sc1ccccc1 |  | inconclusive: 29.1 µM [activator, single point]
53 | CCn1c2ccccc2c2cc(NC(=O)CC(C)=O)ccc21 | inconclusive: 25.4% | 
54 | Cc1ccc(S(=O)(=O)NC(CC(=O)O)c2ccccc2)c(C)c1 (stereo not given) | inconclusive: -1.05% | 
55 | O=C(N1CCC(O)(c2cccnc2)CC1)C12CC3CC(CC(C3)C1)C2 | inconclusive: 13.6% | 
56 | CCOC(CNC(=O)CN1C(=O)COc2ccc(S(=O)(=O)N3CCCC3)cc21)OCC |  | inconclusive: 29.1 µM [falling, single point]
57 | CNc1nc(SCc2ccccc2Cl)nc2c1CCCC2 | inconclusive: 31.8% | 
58 | COc1cc2cc(CCCOC(=O)c3ccc(C(F)(F)F)cc3)oc(=O)c2cc1OC | inconclusive: 10.1% | 
59 | Cc1c(NC(=O)Nc2ccc3c(c2)OCO3)cccc1[N+](=O)[O-] |  | inconclusive: 13 µM [activator, partial curve, poor fit]
60 | O=NN(CCc1ccncc1)c1ccc(OCc2ccccc2)cc1 |  | inconclusive: 18.4 µM [falling, single point]
61 | Cc1noc(C)c1C(=O)Nc1nc(-c2ccc(F)cc2)cs1 |  | inconclusive: 0.651 µM [activator, partial curve, poor fit]
62 | O=c1[nH]oc(O)c1-c1ncc(C(F)(F)F)cc1Cl |  | inconclusive: 29.1 µM [cytotoxic, single point]
63 | CN(CCOc1ccc(Cl)cc1)C(=O)c1cc(S(=O)(=O)N2CCOCC2)ccc1N1CCCC1 |  | inconclusive: 29.1 µM [falling, single point]
64 | Cc1cc(C)n(CC(=O)N/N=C/c2cccs2)n1 | inconclusive: -43.6% | 
65 | CC1CN(C(=O)COC(=O)c2cc(=O)c3ccccc3o2)CC(C)O1 (stereo not given) |  | inconclusive: 0.116 µM [activator, full curve, poor fit]
66 | O=C(O)CC(NC(=O)C12CC3CC(CC(C3)C1)C2)c1ccc(Cl)cc1 (stereo not given) | inconclusive: 47.6% | 
67 | CNC(=S)Nc1ccc(OCc2ccccc2)cc1 | inconclusive: 2.54% | 
68 | CCOC(=O)N1CCN(c2nc(-c3cccc(OC)c3)cc(C(F)(F)F)n2)CC1 |  | inconclusive: 8.2 µM [falling, partial curve, poor fit]
69 | CC(=O)c1cc2c(s1)-c1cc(F)ccc1OC2 | inconclusive: 6.92% | 
70 | CC1CN(c2ncnc3c2cnn3-c2ccc(Cl)cc2)CC(C)O1 (stereo not given) |  | inconclusive: 0.651 µM [falling, full curve]
71 | O=C(Nc1ccccc1C(F)(F)F)N1CCC(N2CCCCC2)CC1 | inconclusive: -2.15% | 
72 | COc1ccc(COC(=O)c2ccc(S(=O)(=O)N3CCCCC3)cc2)cc1OC | inconclusive: 37.4% | 
73 | CN(Cc1ccccc1)C(=O)COC(=O)C1CCN(S(=O)(=O)c2cccs2)CC1 |  | inconclusive: 0.231 µM [falling, full curve, poor fit]
74 | COc1cccc(OC)c1OCCNC(C)(C)C |  | inconclusive: 29.1 µM [activator, single point]
75 | COc1ccc(NC2=NC(=S)N(c3ccc(C)cc3)C23CCCCC3)cc1 | inconclusive: 12.5% | 
